Results: patent US6692743B1, “Apoptosis of naive human NK cells by crosslinking of their FcγRIIIa molecules with a rat IgG2b (LO-CD2a/BTI-322) or its IgG1 humanized monoclonal antibody” (Universite Catholique de Louvain, priority 1998, dated 2004)

Tested on: freshly isolated NK cells
Experiment: Effect of different inhibitors on LO-CD2a mediated NK apoptosis (PI, flow cytometry)
Type: cell-based, human
Settings: 3 h pre-incubation with inhibitor, then 3 hours with LO-CD2a; 5 donors
Method: Effect of different inhibitors on LO-CD2a mediated NK apoptosis. 100 ul of freshly isolated NK cells (10^6/ml) were pre-incubated for 3 h at 37° C. in a 96 well plate with EGTA (20 mM), staurosporin (250 nM), quinacrine ([…]), cyclosporin A ([…]), FK506 ([…]), wortmannin (500 ng/ml), concanamycin A ([…]), cytochalasine D (1 mg/ml), actinomycin) (500 ng/ml final concentration), NOK-1 (25 mg/ml) or medium alone. After incubation for 3 hours with LO-CD2a ([…] final concentration) propidium iodide was added and cell mortality was analysed by flow cytometry.

Structure (SMILES): CN[C@@H]1C[C@H]2O[C@@](C)([C@@H]1OC)n1c3ccccc3c3c4c(c5c6ccccc6n2c5c31)C(=O)NC4 [staurosporine, Staurosporine]
- inhibition of LO-CD2a mediated NK apoptosis (in words): completely inhibited
